# From patent publication US10703971B2, “Chemiluminescent substrates” (Beckman Coulter, Inc., priority 2016, dated 2020)
# At least one compound was matched to its structure with a doubt left.
# Key:
# alkaline phosphatase [1] = assay: Stability Test A: luminescence of the AP substrate formulation in a micro-titer plate after injection of AP; type: biochemical; settings: 50% more of the named component added to a single lot of APS-5
# Experimental: An aliquot (100 μL) of AP substrate formulation was added to a micro-titer plate well (8 replicates for each formulation). The plate was placed in a luminescence plate reader (Luminoskan, Labtech) and to each well was injected 20 μL of AP solution (2 ng/mL). Luminescence signal was read after 30 seconds and intergraded for 2 seconds.
# alkaline phosphatase [2] = assay: Alternative cationic aromatic compounds, Imax on Turner 20/20e luminometer; settings: compound used as cationic aromatic compound (CAC) in the formulation
compound,measurement,setting,value
"C[n+]1c2ccccc2c(-c2c3ccccc3[n+](C)c3ccccc23)c2ccccc21 [Lucigenin, N,N′-dimethylbiacridinium dinitrate]",Performance,alkaline phosphatase [1],91.9%
same,I max RLU (Turner 20/20e luminometer with filter),alkaline phosphatase [2],2500 RLU
